{
  "source": "paper PMC9065044",
  "molecular_target": "T1, VC155-POU6F1 (pBiFC-VC155-POU6F1) (human) (UniProt Q14863)",
  "T1 sequence": "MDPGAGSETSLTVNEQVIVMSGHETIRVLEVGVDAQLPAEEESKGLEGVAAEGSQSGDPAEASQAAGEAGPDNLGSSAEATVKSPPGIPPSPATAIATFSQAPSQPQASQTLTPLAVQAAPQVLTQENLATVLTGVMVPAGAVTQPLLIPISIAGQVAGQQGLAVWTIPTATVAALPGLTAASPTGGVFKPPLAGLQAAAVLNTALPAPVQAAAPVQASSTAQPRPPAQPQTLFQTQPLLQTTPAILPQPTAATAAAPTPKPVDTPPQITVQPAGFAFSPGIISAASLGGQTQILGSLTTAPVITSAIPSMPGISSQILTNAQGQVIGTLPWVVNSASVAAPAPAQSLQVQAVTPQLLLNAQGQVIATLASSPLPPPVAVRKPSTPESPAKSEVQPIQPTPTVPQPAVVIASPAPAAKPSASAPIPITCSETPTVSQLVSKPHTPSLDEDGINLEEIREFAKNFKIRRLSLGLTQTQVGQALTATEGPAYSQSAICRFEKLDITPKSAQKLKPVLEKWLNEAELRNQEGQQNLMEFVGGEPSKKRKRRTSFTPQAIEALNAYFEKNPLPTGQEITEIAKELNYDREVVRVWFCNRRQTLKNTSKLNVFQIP",
  "experiment": "split reporter; BiFC; A549 cells co-transfected with pBiFC-VC155-POU6F1 and pBiFC-VN173-RORA for 24 h; confocal microscopy, excitation 488 nm, emission 500 nm",
  "note": "No constants are given. Whether binding was seen depends on the method and setting. Binding seen in cells or lysates may run through a third protein. Binding can be weak; no strength is given.",
  "data": [
    {"substance": "VN173-RORA (pBiFC-VN173-RORA) (human)", "values": [
      {"measurement": "binding", "value": "binds"}
    ]}
  ]
}
